Laboratory results as given in paper PMC7171158.
Results are given in words; binding and its absence hold for the method and conditions named.

The chains behind the UniProt entries cited, without tags or fusion partners.
UniProt P0AFG0: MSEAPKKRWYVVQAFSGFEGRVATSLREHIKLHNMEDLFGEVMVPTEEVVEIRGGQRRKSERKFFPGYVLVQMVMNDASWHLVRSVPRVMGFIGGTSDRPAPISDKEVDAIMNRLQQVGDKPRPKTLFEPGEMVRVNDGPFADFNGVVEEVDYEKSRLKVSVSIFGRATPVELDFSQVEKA

Biological target: T1, antiterminator protein Q from phage λ (λQ), full length (phage λ) (UniProt P03047)
T1 sequence: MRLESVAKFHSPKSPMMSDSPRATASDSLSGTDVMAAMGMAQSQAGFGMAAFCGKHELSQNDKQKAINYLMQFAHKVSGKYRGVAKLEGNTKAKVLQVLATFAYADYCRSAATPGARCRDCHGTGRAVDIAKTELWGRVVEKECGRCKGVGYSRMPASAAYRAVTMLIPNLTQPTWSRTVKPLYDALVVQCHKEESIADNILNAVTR
Assay: NMR titration; [1H,15N]-HSQC or BEST-TROSY titration of the 15N-labeled protein with the unlabeled partner; 298 K; 50 mM MOPS pH 6.5, 300 mM NaCl, 150 mM D-glucose, 5 mM DTT; both purified

Row | Substance | binding
1 | N-utilization substance B (NusB) (from UniProt P0A780 1-139) | no binding
2 | N-utilization substance G (NusG) (from UniProt P0AFG0 1-181) | no binding
